The nature of the data set: Total drug content of support loaded with HIF-1 alpha hydroxylase inhibitor, release into DI-water overnight, HPLC. As to conditions: 8 mm disc in 0.5 ml DI-water overnight. In kind it is physicochemical. As to the method:
8 mm discs were prepared from the foam sheet described in Example 1 and placed in a 2 ml glass vial containing 0.5 ml of DI-water. The vial was then sealed and placed on a shaker overnight to ensure complete release of the drug content from the support into the solvent. The following day the support was removed from the vial and the solution was analyzed via HPLC to determine the total drug content. A C-18 column was used with a mobile phase composed of 50% methanol, and 50% water (pH=2.7; H2SO4). The flow rate was controlled at 1 ml/min. The injection volume was 10 μl and detection was done at 254 nm. The run time of the method was 30 minutes. A stock solution was prepared by dissolving the drug in pure water and stored in the refrigerator in an amber flask. The standard solutions were prepared by serial dilution of the stock solution. […] Linearity and reproducibility were assessed by duplicate injections of four standards.

Each structure is given as a SMILES string.

`CCOC(=O)c1ccc(O)c(O)c1` [ethyl-3,4-dihydroxybenzoate]: the “Total Drug content detected” value is, setting by setting: (200 μg drug added per 10 cm × 10 cm support sheet) 0.39 ng/8 mm support; (2000 μg drug added per 10 cm × 10 cm support sheet) 10.0 ng/8 mm support; (20,000 μg drug added per 10 cm × 10 cm support sheet) 92.7 ng/8 mm support.

Source of the values: US20070122448A1, “Compositions and methods to create a vascularized environment for cellular transplantation” (priority 2005, published 2007).
